No constants are given. Whether binding was seen depends on the method and setting. Binding seen in cells or lysates may run through a third protein. Some entries that bind do so weakly or less than the wild type.
What was measured:
[1] = molecular target: TWIST1 (UniProt Q15672); assay: proximity ligation; in situ PLA in A549 and H1299 cells
[2] = molecular target: TWIST1 (UniProt Q15672); assay: co-IP; co-immunoprecipitation with Myc or HA antibody and western blot, HEK293T cells

Chains of the proteins cited; added tags and fusions are not shown.
UniProt Q15672: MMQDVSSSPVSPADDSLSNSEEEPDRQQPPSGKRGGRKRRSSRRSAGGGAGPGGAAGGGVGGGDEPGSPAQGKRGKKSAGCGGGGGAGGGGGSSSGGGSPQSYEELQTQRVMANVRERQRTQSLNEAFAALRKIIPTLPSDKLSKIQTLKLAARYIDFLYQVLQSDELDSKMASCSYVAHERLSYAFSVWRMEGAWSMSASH
UniProt Q8N1E6: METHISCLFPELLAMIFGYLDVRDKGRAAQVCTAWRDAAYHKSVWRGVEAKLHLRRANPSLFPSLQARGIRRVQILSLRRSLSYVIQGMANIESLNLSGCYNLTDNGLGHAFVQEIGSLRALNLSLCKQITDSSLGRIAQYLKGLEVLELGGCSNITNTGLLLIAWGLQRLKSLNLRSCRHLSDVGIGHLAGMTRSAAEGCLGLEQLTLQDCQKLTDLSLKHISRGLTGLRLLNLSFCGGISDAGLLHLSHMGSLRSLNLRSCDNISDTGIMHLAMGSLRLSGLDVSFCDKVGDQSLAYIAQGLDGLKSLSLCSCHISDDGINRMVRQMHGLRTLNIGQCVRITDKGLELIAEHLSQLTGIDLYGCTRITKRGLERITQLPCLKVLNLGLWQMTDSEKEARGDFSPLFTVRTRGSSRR

binding [1]: binds | binding [2]: binds
Substance: FBXL14 (from UniProt Q8N1E6 1-418)

Source: article PMC8292372
